# PubChem BioAssay AID743121, NCATS – 2013
# Screen: 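Knock-downs that sensitise breast cancer cells to camptothecin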 (primary screen)
# Cell system: MDA-MB-231 cells, a human breast cancer line
# Reagent: single siRNA against human genes, 20 nM siRNA (0.8 pmol per well)
# Time to read-out: 120 h (drug added 48 h after transfection, read 72 h later)
# Conditions: camptothecin 20 nM (about EC30) for 72 h; vehicle 0.1% DMSO in parallel plates
# Read-out: 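CellTiter-Glo ATP signal, scaled to control siRNA as percent viability; sensitisation given as log2 of untreated divided by camptothecin-treated viability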
# Scale: log2 vehicle/camptothecin viability: higher = stronger sensitisation to camptothecin; viability with camptothecin and viability without drug: higher = more viable cells
# Hit rule: 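Active genes have an RSA gene-level p-value below 0.001, computed from the ratios of their separate siRNAs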
# The deposit covers about 26,000 reagents; below is a random part of them. Over the whole deposit, 167 (0.63%) got an active call. 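Calls are per gene from RSA p-values that are not deposited; an individual active-marked siRNA can sensitise only weakly.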 The numbers tell different reagents against one gene apart.
gene knocked down,reagent,log2 vehicle/camptothecin viability,viability with camptothecin (% of control),viability without drug (% of control),activity call
RFX2 (regulatory factor X2),1,0.0155,108,109,inactive
RFX2 (regulatory factor X2),2,-0.176,123,109,inactive
RFX2 (regulatory factor X2),3,0.11,39.9,43.1,inactive
RFX2 (regulatory factor X2),4,0.484,80.2,112,inactive
TRAF6 (TNF receptor associated factor 6),1,0.971,15.6,30.6,active
TRAF6 (TNF receptor associated factor 6),2,0.287,70.3,85.8,active
TRAF6 (TNF receptor associated factor 6),3,0.222,45.7,53.3,active
TRAF6 (TNF receptor associated factor 6),4,0.159,53,59.2,active
PLCD3 (phospholipase C delta 3),1,-0.312,51.4,41.4,inactive
PLCD3 (phospholipase C delta 3),2,-0.287,116,95.3,inactive
PLCD3 (phospholipase C delta 3),3,-0.794,33.6,19.4,inactive
YWHAEP1,1,0.149,75.1,83.3,inactive
POLR2C (RNA polymerase II subunit C),1,-0.398,55.5,42.2,inactive
POLR2C (RNA polymerase II subunit C),2,-0.279,34.2,28.2,inactive
POLR2C (RNA polymerase II subunit C),3,-0.412,20.8,15.7,inactive
POLR2C (RNA polymerase II subunit C),4,-0.466,21.2,15.3,inactive
APTX (aprataxin),1,-0.232,51.7,44,inactive
APTX (aprataxin),2,-0.516,122,85.4,inactive
APTX (aprataxin),3,0.00798,96.4,96.9,inactive
LTB4R2 (leukotriene B4 receptor 2),1,-0.0976,93.6,87.5,inactive
LTB4R2 (leukotriene B4 receptor 2),2,0.157,61.3,68.3,inactive
LTB4R2 (leukotriene B4 receptor 2),3,-0.173,73.2,64.9,inactive
KMT5B (lysine methyltransferase 5B),1,-0.254,81.5,68.3,inactive
KMT5B (lysine methyltransferase 5B),2,-0.71,104,63.3,inactive
KMT5B (lysine methyltransferase 5B),3,-0.198,80.9,70.5,inactive
KMT5B (lysine methyltransferase 5B),4,-0.37,47.4,36.6,inactive
ABCC13 (ATP binding cassette subfamily C member 13 (pseudogene)),1,0.248,59.1,70.2,inactive
ABCC13 (ATP binding cassette subfamily C member 13 (pseudogene)),2,-0.16,60.5,54.1,inactive
ABCC13 (ATP binding cassette subfamily C member 13 (pseudogene)),3,0.0617,65.1,68,inactive

In a second layout: entries from further up.
| gene knocked down | reagent | log2 vehicle/camptothecin viability | viability with camptothecin (% of control) | viability without drug (% of control) | activity call |
| --- | --- | --- | --- | --- | --- |
| KMT5B (lysine methyltransferase 5B) | 4 | -0.37 | 47.4 | 36.6 | inactive |
| ABCC13 (ATP binding cassette subfamily C member 13 (pseudogene)) | 1 | 0.248 | 59.1 | 70.2 | inactive |
| ABCC13 (ATP binding cassette subfamily C member 13 (pseudogene)) | 2 | -0.16 | 60.5 | 54.1 | inactive |
